Measured values reported in the supplement of paper PMC7238544.
Where a name gives a salt, the structure may show the parent alone. ± gives the standard deviation of the averaged measurements. This is one part of the list. The data scatter; read single values as rough. *1 amine or outer side, *2 acyl side, *3 side chain or, on linkers, in order; H or OH if unused. Where a SMILES comes first, the peptide text is derived from it. Bridges are numbered along the chain shown (N, C = ends). Roman numbers before positions name the chains, in order. [ ]: non-standard residue; d: D form. Actinocin(9to1) = Cc1c2oc3c(C)ccc(C(=O)[*:1])c3nc-2c(C(=O)[*:2])c(N)c1=O; NMeV = CN[C@H](C(=O)O)C(C)C; Sar = CNCC(=O)O

Experiments:
[1] = system: hAMSC donor 1; experiment: Hoechst total cell count ratio vs vehicle control; higher = more cells (less toxicity)
[2] = system: hAMSC donor 2; experiment: as above
[3] = system: hAMSC donor 1; experiment: transgenic luciferase activity (RLU/mg protein) fold change vs vehicle control (ratio); higher = more transgene expression
[4] = system: hAMSC donor 2; experiment: as above
[5] = system: hAMSC donor 1; experiment: transfection efficiency (EGFP+ cells / Hoechst count) fold change vs vehicle control (ratio); hAMSC are human adipose-derived mesenchymal stem cells given an EGFP-luciferase plasmid by lipofection; higher = enhanced transfection
[6] = system: hAMSC donor 2; experiment: as above
[7] = priming compound concentration 0.2 µM
[8] = priming compound concentration 1.7 µM
[9] = priming compound concentration 13 µM

Compound | Hoechst total cell count ratio [1, 7] | Hoechst total cell count ratio [1, 8] | Hoechst total cell count ratio [1, 9] | Hoechst total cell count ratio [2, 7] | Hoechst total cell count ratio [2, 8] | Hoechst total cell count ratio [2, 9] | transgenic luciferase activity [3, 8] | transgenic luciferase activity [3, 9] | transgenic luciferase activity [4, 7] | transgenic luciferase activity [4, 8] | transgenic luciferase activity [4, 9] | transfection efficiency [5, 7] | transfection efficiency [5, 8] | transfection efficiency [5, 9] | transfection efficiency [6, 7] | transfection efficiency [6, 8] | transfection efficiency [6, 9] | transgenic luciferase activity [3, 7]
CCCNCC(O)COc1ccccc1C(=O)CCc1ccccc1 (configuration not stated) [Propafenone] | 1.2 ± 0.15 | 1.08 ± 0.11 | 1.22 ± 0.21 | 1.15 ± 0.2 | 1.15 ± 0.055 | 1.39 ± 0.055 | 1.01 ± 0.43 | 0.248 ± 0.072 | 0.487 ± 0.14 | 0.878 ± 0.23 | 0.58 ± 0.0091 | 1.26 ± 0.21 | 1.52 ± 0.16 | 1.16 ± 0.26 | 0.946 ± 0.23 | 1.06 ± 0.066 | 0.845 ± 0.093 | –
O=C1C(CC[S+]([O-])c2ccccc2)C(=O)N(c2ccccc2)N1c1ccccc1 (configuration not stated) [Sulfinpyrazone] | 1.1 ± 0.013 | 1.24 ± 0.11 | 1.4 ± 0.057 | 1.05 ± 0.21 | 1.07 ± 0.093 | 1.22 ± 0.26 | 1.44 ± 0.56 | – | 0.817 ± 0.091 | 1.15 ± 0.14 | 0.604 ± 0.058 | 1.2 ± 0.2 | 1.67 ± 0.17 | 0.855 ± 0.17 | 1.03 ± 0.17 | 1.14 ± 0.21 | 0.977 ± 0.13 | 0.749 ± 0.24
CC[C@]1(O)C[C@@H]2CN(CCc3c([nH]c4ccccc34)[C@@](C(=O)OC)(c3cc4c(cc3OC)N(C)[C@H]3[C@@](O)(C(N)=O)[C@H](O)[C@]5(CC)C=CCN6CC[C@]43[C@@H]65)C2)C1 [Vindesine sulfate] | 0.484 ± 0.049 | 0.632 ± 0.13 | 0.583 ± 0.052 | 0.488 ± 0.083 | 0.548 ± 0.025 | 0.469 ± 0.049 | 0.337 ± 0.24 | 0.52 ± 0.41 | 0.826 ± 0.16 | 1.44 ± 0.13 | 0.761 ± 0.15 | 1.15 ± 0.7 | 1.23 ± 0.59 | 1.57 ± 0.84 | 1.07 ± 0.1 | 1.18 ± 0.22 | 1.48 ± 0.46 | –
CN(C)C(=O)C(CCN1CCC(O)(c2ccc(Cl)cc2)CC1)(c1ccccc1)c1ccccc1 [Loperamide hydrochloride] | 1.35 ± 0.33 | 1.15 ± 0.12 | 1.54 ± 0.13 | 1.1 ± 0.1 | 1.22 ± 0.011 | 1.49 ± 0.1 | 1.04 ± 0.37 | 0.287 ± 0.043 | 0.971 ± 0.13 | 0.728 ± 0.21 | 0.443 ± 0.013 | 1.13 ± 0.28 | 1.15 ± 0.29 | 0.496 ± 0.23 | 0.911 ± 0.15 | 0.979 ± 0.039 | 0.746 ± 0.021 | –
C[C@H](CCC(=O)O)[C@H]1CC[C@H]2[C@@H]3C(=O)C[C@@H]4CC(=O)CC[C@]4(C)[C@H]3CC(=O)[C@]12C [Dehydrocholic acid] | 1.18 ± 0.12 | 1.08 ± 0.035 | 1.33 ± 0.061 | 0.837 ± 0.22 | 1.24 ± 0.39 | 1.2 ± 0.23 | 1.13 ± 0.47 | – | 1.13 ± 0.41 | 1.17 ± 0.53 | 0.844 ± 0.3 | 1.23 ± 0.41 | 1.58 ± 0.13 | 0.98 ± 0.086 | 1.19 ± 0.29 | 0.966 ± 0.33 | 1.05 ± 0.08 | 0.516 ± 0.044
CN(Cc1cnc2nc(N)nc(N)c2n1)c1ccc(C(=O)N[C@@H](CCC(=O)O)C(=O)O)cc1 [Methotrexate trihydrate] | 1.43 ± 0.088 | 1.22 ± 0.14 | 1.31 ± 0.23 | 0.969 ± 0.12 | 1.07 ± 0.15 | 1.01 ± 0.18 | 2.24 ± 0.51 | – | 1.11 ± 0.51 | 0.774 ± 0.045 | 0.907 ± 0.35 | 0.804 ± 0.18 | 1.04 ± 0.37 | 1.18 ± 0.14 | 1.59 ± 0.47 | 1.1 ± 0.027 | 1.26 ± 0.033 | 0.483 ± 0.12
CC(C)(C)NC[C@H](O)COc1nsnc1N1CCOCC1 [S(-)-Timolol maleate] | 1.27 ± 0.25 | 1.2 ± 0.17 | 1.42 ± 0.023 | 1.02 ± 0.14 | 1.05 ± 0.075 | 1.07 ± 0.22 | 0.632 ± 0.24 | 0.438 ± 0.11 | 0.649 ± 0.16 | 0.781 ± 0.085 | 0.861 ± 0.12 | 1.22 ± 0.5 | 1.48 ± 0.42 | 1.31 ± 0.12 | 1.07 ± 0.14 | 1.25 ± 0.092 | 1.27 ± 0.27 | –
c1ccc2[nH]c(-c3cscn3)nc2c1 [Thiabendazole] | 1.41 ± 0.081 | 0.746 ± 0.2 | 1.06 ± 0.057 | 0.805 ± 0.24 | 0.815 ± 0.16 | 1.23 ± 0.15 | 0.439 ± 0.3 | 1.22 ± 0.38 | – | 0.535 ± 0.04 | 0.398 ± 0.076 | 1.17 ± 0.72 | 1.58 ± 0.69 | 1.6 ± 0.39 | 1.61 ± 0.63 | 1.06 ± 0.24 | 1 ± 0.21 | –
O=C1CC2(CCCC2)CC(=O)N1CCNCC1COc2ccccc2O1 (configuration not stated) | 1.38 ± 0.061 | 1.26 ± 0.1 | 1.37 ± 0.098 | 1.02 ± 0.075 | 1.34 ± 0.05 | 0.967 ± 0.089 | 1.83 ± 1.5 | – | 0.626 ± 0.046 | 0.753 ± 0.042 | 0.958 ± 0.07 | 0.92 ± 0.1 | 0.927 ± 0.13 | 1.13 ± 0.14 | 1.12 ± 0.29 | 0.789 ± 0.035 | 1.35 ± 0.19 | 0.512 ± 0.18
COc1cc(C)c(Cc2cnc(N)nc2N)cc1OC [Ormetoprim] | 1.07 ± 0.066 | 1.27 ± 0.038 | 0.876 ± 0.066 | 0.807 ± 0.14 | 1.27 ± 0.045 | 1.41 ± 0.11 | 0.914 ± 0.28 | – | 0.803 ± 0.17 | 0.98 ± 0.12 | 0.703 ± 0.16 | 1.58 ± 0.46 | 1.23 ± 1 | 1.19 ± 0.26 | 1.26 ± 0.17 | 0.936 ± 0.015 | 1.03 ± 0.077 | 0.821 ± 0.32
O=c1[nH]c(=O)n(C2CCCO2)cc1F (configuration not stated) [Tegafur] | 1.44 ± 0.2 | 1.187 ± 0.0065 | 1.04 ± 0.17 | 1.27 ± 0.072 | 1.423 ± 0.0054 | 1.1 ± 0.14 | 0.624 ± 0.25 | 0.541 ± 0.23 | 0.437 ± 0.19 | 0.728 ± 0.04 | 0.724 ± 0.27 | 0.929 ± 0.23 | 0.939 ± 0.26 | 1.11 ± 0.065 | 0.895 ± 0.12 | 0.936 ± 0.036 | 1.23 ± 0.1 | –
Nc1ccn([C@@H]2O[C@H](CO)[C@@H](O)C2(F)F)c(=O)n1 [Gemcitabine hydrochloride] | 1.17 ± 0.092 | 1.23 ± 0.09 | 0.955 ± 0.11 | 1.36 ± 0.3 | 1.08 ± 0.035 | 0.756 ± 0.11 | 0.158 ± 0.038 | 0.794 ± 0.11 | 0.893 ± 0.047 | 0.888 ± 0.097 | 0.405 ± 0.17 | 0.942 ± 0.15 | 0.87 ± 0.043 | 1.27 ± 0.18 | 0.912 ± 0.081 | 1 ± 0.05 | 1.01 ± 0.14 | –
COC1=CC(=O)C[C@@H](C)[C@]12Oc1c(Cl)c(OC)cc(OC)c1C2=O [Griseofulvin] | 1.05 ± 0.26 | 1.19 ± 0.17 | 1.17 ± 0.12 | 1.15 ± 0.18 | 1.09 ± 0.025 | 1.26 ± 0.17 | 0.276 ± 0.1 | 1.08 ± 0.19 | 1.06 ± 0.12 | 1.01 ± 0.066 | 0.545 ± 0.039 | 0.843 ± 0.12 | 1.16 ± 0.51 | 1.06 ± 0.29 | 1.06 ± 0.11 | 0.99 ± 0.13 | 0.882 ± 0.18 | –
Cc1c2oc3c(C)ccc(C(=O)N[C@@H]4C(=O)N[C@H](C(C)C)C(=O)N5CCC[C@H]5C(=O)N(C)CC(=O)N(C)[C@@H](C(C)C)C(=O)O[C@@H]4C)c3nc-2c(C(=O)N[C@@H]2C(=O)N[C@H](C(C)C)C(=O)N3CCC[C@H]3C(=O)N(C)CC(=O)N(C)[C@@H](C(C)C)C(=O)O[C@@H]2C)c(N)c1=O [Dactinomycin] (I: T[dV]P[Sar][NMeV] / II: T[dV]P[Sar][NMeV]; ester I:1-I:C, II:1-II:C; linker I:N-II:N via Actinocin(9to1)) | 0.532 ± 0.067 | 0.386 ± 0.094 | 0.267 ± 0.022 | 0.474 ± 0.055 | 0.311 ± 0.016 | 0.134 ± 0.01 | 3.27 ± 1.1 | – | 1.35 ± 0.22 | 0.419 ± 0.098 | 0.00885 ± 0.0083 | 1.22 ± 0.14 | 0.398 ± 0.16 | 0.227 ± 0.24 | 2.23 ± 0.58 | 1.42 ± 0.55 | 0.173 ± 0.19 | 1.37 ± 0.68

Taken from above.
Entry for CC[C@]1(O)C[C@@H]2CN(CCc3c([nH]c4ccccc34)[C@@](C(=O)OC)(c3cc4c(cc3OC)N(C)[C@H]3[C@@](O)(C(N)=O)[C@H](O)[C@]5(CC)C=CCN6CC[C@]43[C@@H]65)C2)C1 [Vindesine sulfate] under transgenic luciferase activity [4, 9]: 0.761 ± 0.15
Entry for COc1cc(C)c(Cc2cnc(N)nc2N)cc1OC [Ormetoprim] under Hoechst total cell count ratio [2, 8]: 1.27 ± 0.045
